Test results as given in PubChem BioAssay AID1471 (National Center for Advancing Translational Sciences (NCATS), 2008).
The whole screen tested about 230,000 compounds, of which about 310 (0.13%) were called active. Inconclusive results, whose numbers are uncertain, are shown with a selection of clear calls. Calls come from the whole dose curve; as a rule, active = well fitted activation curve with a large enough effect; inconclusive = small, poorly fitted or top-dose-only effect; inactive = no such curve, though single readings can be large or run the other way. A potency beside an inconclusive call is a rough fit, not a confirmed value.

Experiment: qHTS Multiplex Assay to Identify Dual Action Probes in a Cell Model of Huntington: Cytoprotection (ATP); note: nearly all actives have a fitted effect of over 45% in size;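 for cytoprotection (ATP increase): toxic huntingtin expression switched on by the ecdysone agonist tebufenozide; % of control where 0% means no effect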
Conditions: PC12 HTT-Q103 induced, ATP luminescence, 40 h; cytoprotection (ATP increase): at 56.4 µM (top of the series) unless noted
How it was run: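 Compounds added alongside 100 nM tebufenozide, which induces toxic Q103 huntingtin exon 1-GFP in stable PC12 cells; surviving cells quantified by luminescent ATP measurement. Medium: phenol red-free DMEM, 5% equine and 5% calf serum.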
Potency is the fitted concentration of half-maximal effect.

Compound | Potency | cytoprotection (ATP increase)
Cn1c(=O)c2c(ncn2CCOC(=O)C(C)(C)Oc2ccc(Cl)cc2)n(C)c1=O | inconclusive: 20000 nM [activator, partial curve, poor fit] | 
CCCNC(=O)Nc1ccc(F)c(Cl)c1 |  | inactive: -19.7%
CCCCCC(=O)NC(Cc1ccc(OC)c([N+](=O)[O-])c1)C(=O)O (stereo not drawn) | inconclusive: 708 nM [activator, full curve, poor fit] | 
CN1CCN(NC(=O)CN(C)S(=O)(=O)c2cc(Cl)ccc2Cl)CC1 | inconclusive: 3550 nM [activator, single point] | 
Cc1ccccc1OCCOC(=O)c1nc2nccc(C)n2n1 | inconclusive: 12600 nM [activator, single point] | 
Cc1ccc(NC(=S)NC2CCN(Cc3ccccc3)CC2)cc1C | inconclusive: 5620 nM [activator, single point] | 
COCCNC(=O)CSc1ccc(Cl)cc1 | inconclusive: 12600 nM [activator, single point] | 
Cc1cccc(-n2c(SCC(=O)N3CC(=O)Nc4ccccc43)nc3ccccc3c2=O)c1C | active: 891 nM | 
COC(=O)c1c(-c2cccc(C)c2)csc1NC(=O)C1CCCO1 (stereo not drawn) | inconclusive: 1000 nM [activator, partial curve] | 
CCOC(=O)C1=C(C)OC(N)=C(C#N)C1c1cc(F)ccc1F (stereo not drawn) | inconclusive: 4470 nM [activator, single point] | 
O=C(Oc1ccc(Cl)cc1)c1ccc(COC(=O)c2cnccn2)cc1 | inconclusive: 35500 nM [activator, single point] | 
COc1ccc(NC(=O)c2ccc(-c3ccccc3)cc2)cc1S(=O)(=O)N1CCOCC1 | inconclusive: 5620 nM [activator, single point] | 
Nc1nc(Nc2ccccc2)nc(NCc2ccccc2)c1[N+](=O)[O-] | inconclusive: 5620 nM [activator, single point] | 
O=C(Cc1cccc2ccccc12)Nc1ccc2c(c1)C(=O)NC2=O |  | inactive: -6.8%
CC(C)NC(=O)N1CC2(CCN(C(=O)c3ccco3)CC2)C1 | inconclusive: 5.6 nM [activator, full curve, poor fit] | 
Cc1ccsc1/C=N/N1CCOCC1 | inconclusive: 2510 nM [activator, partial curve] | 
O=C(O)C(Oc1ccc2ccc(=O)oc2c1)c1ccccc1 (stereo not drawn) | inconclusive: 5620 nM [activator, single point] | 
Cn1c(SCC(=O)OCc2ccccc2)nnc1-c1ccco1 | inconclusive: 1410 nM [activator, partial curve] | 
COC(=O)c1c(-c2cccc3ccccc23)csc1NC(=O)Cc1ccc(OC)c(OC)c1 |  | inactive: 3.18% [at 10 µM]
O=C(N1CCCC1)C12CC3CCC(CC(C3)C1)C2 | inconclusive: 794 nM [activator, single point] | 
O=C(/C=C/c1ccccc1Cl)Nc1ccc(-c2nnc3n2CCCCC3)cc1 | inconclusive: 631 nM [activator, partial curve] | 
O=C1SCC(c2ccccc2)=NN1Cc1ccccc1 |  | inactive: 6.38% [at 10 µM]
CN1CCN(Cc2ccc(OCc3ccccc3)cc2)CC1 |  | inactive: -15.2%

Compound | Potency | cytoprotection (ATP increase)
COc1ccc2c(c1)C(c1ccc(C)o1)=NNC(c1cccnc1)=N2 | inconclusive: 2820 nM [activator, single point] | 
CCC(Sc1nc2cc(OC)c(OC)cc2c(=O)n1Cc1ccc(OC)cc1)C(=O)NCCOC (stereo not drawn) | inconclusive: 1260 nM [activator, single point] | 
COc1ccc(-c2nc(CC(=O)O)cs2)cc1 | inconclusive: 891 nM [activator, single point] | 
CC(C)(C)NC(=O)[C@@H]1CC[C@@H]2[C@@H]3CC[C@@H]4NC(=O)C=C[C@@]4(C)[C@H]3CC[C@]21C | inconclusive: 89.1 nM [activator, full curve, poor fit] | 
CCOC(=O)C1CCN(Cc2cnc(Oc3ccc(C(C)(C)C)cc3)s2)CC1 |  | inactive: -31.2%
Cc1ccc(N2C(=O)CC2(C#N)c2ccc(OCc3ccccc3)cc2)cc1 (stereo not drawn) | inconclusive: 1260 nM [activator, single point] | 
NC(=O)c1ccsc1NC(=O)C1CCCCC1 | inconclusive: 5620 nM [activator, single point] | 
Cc1nc2oc3c(=O)[nH]cnc3c2c2c1COC(C)(C)C2 |  | inactive: 18.1% [at 10 µM]
COc1ccc(-c2nc3cnc(N4CCN(C)CC4)nc3n(Cc3ccc(F)cc3)c2=O)cc1 | inconclusive: 126 nM [activator, full curve, poor fit] | 
Cc1c(Cc2ccccc2)sc(/N=C/c2c(O)ccc3ccccc23)c1C(N)=O |  | inactive: 17.3% [at 10 µM]
CC12CC3CC(C)(C1)CC(N)(C3)C2 | inconclusive: 1120 nM [activator, partial curve] | 
CN(C)CCN1C(=O)C(O)=C(C(=O)c2cc3ccccc3o2)C1c1cccc(Br)c1 (stereo not drawn) |  | inactive: -5.76%
COc1cccc2c1C(=O)c1c(O)c3c(c(O)c1C2=O)C[C@@](O)(C(=O)CO)C[C@H]3O[C@H]1C[C@@H](N)[C@H](O)[C@@H](C)O1.[W] |  | inactive: -43.2% [at 10 µM]
CCCCCCCC(=O)O[C@H](CC(=O)O)C[N+](C)(C)C | inconclusive: 1000 nM [activator, single point] | 
CCNC(=O)NC(=O)C(C)OC(=O)CCCSc1nc2ccccc2s1 (stereo not drawn) | inconclusive: 2820 nM [activator, single point] | 
O=C(CN1C(=O)c2ccc([N+](=O)[O-])cc2C1=O)Nc1nccs1 | inconclusive: 5620 nM [activator, single point] | 
COCCn1nnnc1CN(CCc1ccccc1)Cc1cc2ccc(C)cc2[nH]c1=O |  | inactive: -13.8% [at 10 µM]
CCC[C@@H]1C[C@@H](C(=O)N[C@@H]([C@H]2O[C@H](SC)[C@H](O)[C@@H](O)[C@H]2O)[C@@H](C)O)N(C)C1 | inconclusive: 6310 nM [activator, full curve, poor fit] | 
FC(F)C(F)(F)c1cc(-c2ccccc2)n[nH]1 | inconclusive: 1260 nM [activator, single point] | 
CC/C=C\C/C=C\C/C=C\C/C=C\C/C=C\C/C=C\CCC(=O)O | inactive | 
CCn1nc(C)cc1C(=O)Sc1ccc(Cl)cc1Cl |  | inactive: -15.6% [at 10 µM]
CC1(C)Cc2ccccc2-c2nnc(-c3ccccn3)n21 | inconclusive: 3160 nM [activator, single point] | 
N#Cc1ccccc1S(=O)(=O)N1CCN(c2cnccn2)CC1 | inconclusive: 1000 nM [activator, partial curve] | 

Compound | Potency | cytoprotection (ATP increase)
CC(C)CN1C(=O)/C(=C/c2cccs2)NC1=S |  | inactive: 33.3% [at 10 µM]
CN1CC(c2ccccc2Cl)C2(COc3ccccc3C2=O)C12C(=O)Nc1ccccc12 (stereo not drawn) |  | inactive: -81.5%
CC(C)C(=O)Nc1cccc(C(=O)Nc2ccccc2C(=O)O)c1 |  | inactive: -90%
O=S(=O)(NC1CCCCC1Nc1ccccc1)c1ccccc1 (stereo not drawn) | inconclusive: 1260 nM [activator, partial curve] | 
O=C(/C=C/c1ccccc1)Nc1nnc(-c2ccco2)o1 |  | inactive: -6.64%
CC(C)N(Cc1nc(-c2ccccc2)no1)C(=O)c1ccc(Br)o1 |  | inactive: 5.27% [at 0.074 µM]
COc1cc(CNc2ccc(S(N)(=O)=O)cc2)ccc1OCC(=O)NC1CCCCC1 | inconclusive: 4470 nM [activator, full curve, poor fit] | 
COc1ccc(S(=O)(=O)NCc2cccs2)cc1 | inconclusive: 5620 nM [activator, single point] | 
O=C(NCC1OCCc2ccccc21)c1ccc(NC(=O)c2cccc(Br)c2)cc1 (stereo not drawn) | inconclusive: 1260 nM [activator, single point] | 
C/C(CCN1CCc2nc(-c3ccccc3)c(-c3ccccc3)cc2C1)=N\O[C@@H](C)CN1CCCCc2nc(C)c(C)cc21 | inconclusive: 1260 nM [activator, full curve, poor fit] | 
O=C(NCc1ccccc1)c1ccc2nc(N3CCOCC3)sc2c1 | inconclusive: 891 nM [activator, single point] | 
CCc1nnc(NC(=O)c2cccnc2SC)s1 |  | inactive: 4.67%
C/C=C/OC(=O)NC(c1ccccc1)[C@]1(C(C)=O)CCOC1=O (stereo partly drawn) | inconclusive: 794 nM [activator, single point] | 
COc1ccc(N(CC(=O)NC2CCCC2)C(=O)Cn2nnc(-c3ccc(OC)c(OC)c3)n2)cc1 |  | inactive: -11% [at 10 µM]
c1cncc(CNc2ccnc(-c3cccnc3)n2)c1 |  | inactive: -47%
COc1cc([N+](=O)[O-])ccc1NC(=O)/C=C/C(=O)O | inconclusive: 35500 nM [activator, single point] | 
O=C(OCCN1CCOCC1)C(c1ccccc1)c1ccccc1 |  | inactive: -15.4% [at 10 µM]
C=CCOc1ccc(C=Nc2cccc(Cl)c2)c(O)c1 | inconclusive: 794 nM [activator, single point] | 
CC1(C)CCC[C@@]2(C)[C@@H]1CC[C@]1(C)OC(=O)C[C@@H]21 | inconclusive: 25100 nM [activator, partial curve, poor fit] | 
COCCN(C(=S)Nc1cccc(C)c1C)C(C)c1ccco1 (stereo not drawn) | inconclusive: 35500 nM [activator, single point] | 
CC(C)CC(=O)Nc1ccc2c3c(cccc13)CC2 | inconclusive: 1260 nM [activator, single point] | 
CNc1nc(C)c(C(C)(C)C)s1 |  | inactive: 11.9% [at 10 µM]

Entries of single compounds, quoted from the list:
`CNc1nc(C)c(C(C)(C)C)s1` in the list: cytoprotection (ATP increase): inactive: 11.9% [at 10 µM]
`CC(C)N(Cc1nc(-c2ccccc2)no1)C(=O)c1ccc(Br)o1` in the list: cytoprotection (ATP increase): inactive: 5.27% [at 0.074 µM]
`c1cncc(CNc2ccnc(-c3cccnc3)n2)c1` in the list: cytoprotection (ATP increase): inactive: -47%
`C/C=C/OC(=O)NC(c1ccccc1)[C@]1(C(C)=O)CCOC1=O` (stereo partly drawn) in the list: Potency: inconclusive: 794 nM [activator, single point]
